The supplement of paper PMC10849652
This is one part of the list.

Sequences of proteins named here, by UniProt entry; tags and fusion partners are left off. A change or cut given only in a name is not applied to a line headed by its entry.
UniProt Q9NRB3: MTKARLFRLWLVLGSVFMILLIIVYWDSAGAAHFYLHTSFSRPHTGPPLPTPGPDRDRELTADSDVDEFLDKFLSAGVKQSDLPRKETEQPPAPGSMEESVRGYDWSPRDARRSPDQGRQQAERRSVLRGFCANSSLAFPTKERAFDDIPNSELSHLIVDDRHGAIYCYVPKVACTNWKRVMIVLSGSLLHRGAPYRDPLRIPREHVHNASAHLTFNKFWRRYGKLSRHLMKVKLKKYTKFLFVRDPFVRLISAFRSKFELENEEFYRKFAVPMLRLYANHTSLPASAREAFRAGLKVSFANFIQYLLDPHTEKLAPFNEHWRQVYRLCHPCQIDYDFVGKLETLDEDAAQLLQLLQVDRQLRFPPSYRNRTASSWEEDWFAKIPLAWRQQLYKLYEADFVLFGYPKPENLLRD
UniProt Q5EBM0: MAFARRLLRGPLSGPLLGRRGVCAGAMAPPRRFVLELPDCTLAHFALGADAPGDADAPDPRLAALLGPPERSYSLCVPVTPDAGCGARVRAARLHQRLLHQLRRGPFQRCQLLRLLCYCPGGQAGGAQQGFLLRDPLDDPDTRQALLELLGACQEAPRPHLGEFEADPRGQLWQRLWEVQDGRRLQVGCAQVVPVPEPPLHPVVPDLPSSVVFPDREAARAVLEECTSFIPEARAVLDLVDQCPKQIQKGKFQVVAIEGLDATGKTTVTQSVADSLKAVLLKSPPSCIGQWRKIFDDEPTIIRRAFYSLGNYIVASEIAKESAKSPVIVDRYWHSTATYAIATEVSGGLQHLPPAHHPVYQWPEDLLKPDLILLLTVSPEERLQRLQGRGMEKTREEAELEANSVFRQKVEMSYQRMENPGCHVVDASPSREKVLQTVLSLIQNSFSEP
UniProt Q07065: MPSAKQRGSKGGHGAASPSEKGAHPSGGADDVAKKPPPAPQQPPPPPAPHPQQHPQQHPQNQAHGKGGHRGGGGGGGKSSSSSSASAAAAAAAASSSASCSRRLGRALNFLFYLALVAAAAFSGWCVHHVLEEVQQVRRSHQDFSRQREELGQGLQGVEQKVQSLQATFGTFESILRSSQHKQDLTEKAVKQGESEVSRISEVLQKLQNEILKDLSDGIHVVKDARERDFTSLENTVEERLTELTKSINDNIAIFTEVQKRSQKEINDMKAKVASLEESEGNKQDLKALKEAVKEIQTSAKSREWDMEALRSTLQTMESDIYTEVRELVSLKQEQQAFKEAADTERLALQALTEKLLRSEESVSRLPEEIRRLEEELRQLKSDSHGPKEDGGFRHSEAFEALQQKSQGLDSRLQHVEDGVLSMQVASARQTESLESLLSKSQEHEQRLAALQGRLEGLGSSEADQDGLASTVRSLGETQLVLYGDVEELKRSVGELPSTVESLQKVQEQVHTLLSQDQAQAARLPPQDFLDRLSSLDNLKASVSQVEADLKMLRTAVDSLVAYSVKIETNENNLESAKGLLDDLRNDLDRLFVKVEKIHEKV
UniProt Q9UP83: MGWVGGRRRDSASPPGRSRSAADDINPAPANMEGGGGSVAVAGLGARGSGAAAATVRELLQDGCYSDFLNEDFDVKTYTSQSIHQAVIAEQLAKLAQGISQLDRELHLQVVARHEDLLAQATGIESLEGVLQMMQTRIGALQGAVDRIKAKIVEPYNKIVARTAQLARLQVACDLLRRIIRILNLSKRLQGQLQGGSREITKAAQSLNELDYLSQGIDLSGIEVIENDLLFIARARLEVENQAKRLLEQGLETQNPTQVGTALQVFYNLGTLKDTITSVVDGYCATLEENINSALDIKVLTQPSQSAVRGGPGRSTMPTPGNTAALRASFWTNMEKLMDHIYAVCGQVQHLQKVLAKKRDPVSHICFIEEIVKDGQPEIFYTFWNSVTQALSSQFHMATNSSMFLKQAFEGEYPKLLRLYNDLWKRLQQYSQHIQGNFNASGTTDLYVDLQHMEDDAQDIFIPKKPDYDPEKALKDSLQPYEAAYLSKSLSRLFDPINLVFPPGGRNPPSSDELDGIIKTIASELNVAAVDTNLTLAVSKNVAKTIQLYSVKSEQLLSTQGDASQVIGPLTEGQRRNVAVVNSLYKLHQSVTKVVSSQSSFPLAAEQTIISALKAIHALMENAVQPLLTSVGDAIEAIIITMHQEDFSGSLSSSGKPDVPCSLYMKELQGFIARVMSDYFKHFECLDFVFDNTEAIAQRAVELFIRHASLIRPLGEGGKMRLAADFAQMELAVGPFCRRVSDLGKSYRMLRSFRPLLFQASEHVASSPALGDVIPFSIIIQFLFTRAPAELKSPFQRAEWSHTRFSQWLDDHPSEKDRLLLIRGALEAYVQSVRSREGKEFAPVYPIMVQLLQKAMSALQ
UniProt P83436: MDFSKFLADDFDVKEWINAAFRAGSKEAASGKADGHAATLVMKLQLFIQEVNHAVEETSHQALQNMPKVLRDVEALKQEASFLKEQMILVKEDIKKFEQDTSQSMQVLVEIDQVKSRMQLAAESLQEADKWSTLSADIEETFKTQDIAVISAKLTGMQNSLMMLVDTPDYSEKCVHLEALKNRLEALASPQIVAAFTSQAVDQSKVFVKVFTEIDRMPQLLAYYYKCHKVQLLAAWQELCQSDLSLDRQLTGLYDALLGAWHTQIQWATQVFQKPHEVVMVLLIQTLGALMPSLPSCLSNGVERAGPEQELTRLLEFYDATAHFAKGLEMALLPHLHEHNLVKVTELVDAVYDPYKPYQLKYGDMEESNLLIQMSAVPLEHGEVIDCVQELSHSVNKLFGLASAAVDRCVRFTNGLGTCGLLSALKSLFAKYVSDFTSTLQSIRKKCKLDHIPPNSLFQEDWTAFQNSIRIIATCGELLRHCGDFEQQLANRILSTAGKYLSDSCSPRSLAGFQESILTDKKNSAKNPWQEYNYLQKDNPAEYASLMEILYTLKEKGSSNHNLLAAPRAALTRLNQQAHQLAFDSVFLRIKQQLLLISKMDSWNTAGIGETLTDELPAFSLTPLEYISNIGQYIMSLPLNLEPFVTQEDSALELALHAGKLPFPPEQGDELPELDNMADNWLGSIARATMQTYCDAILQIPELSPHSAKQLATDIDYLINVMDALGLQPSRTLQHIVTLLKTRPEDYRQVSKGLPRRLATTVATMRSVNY
UniProt Q86X52: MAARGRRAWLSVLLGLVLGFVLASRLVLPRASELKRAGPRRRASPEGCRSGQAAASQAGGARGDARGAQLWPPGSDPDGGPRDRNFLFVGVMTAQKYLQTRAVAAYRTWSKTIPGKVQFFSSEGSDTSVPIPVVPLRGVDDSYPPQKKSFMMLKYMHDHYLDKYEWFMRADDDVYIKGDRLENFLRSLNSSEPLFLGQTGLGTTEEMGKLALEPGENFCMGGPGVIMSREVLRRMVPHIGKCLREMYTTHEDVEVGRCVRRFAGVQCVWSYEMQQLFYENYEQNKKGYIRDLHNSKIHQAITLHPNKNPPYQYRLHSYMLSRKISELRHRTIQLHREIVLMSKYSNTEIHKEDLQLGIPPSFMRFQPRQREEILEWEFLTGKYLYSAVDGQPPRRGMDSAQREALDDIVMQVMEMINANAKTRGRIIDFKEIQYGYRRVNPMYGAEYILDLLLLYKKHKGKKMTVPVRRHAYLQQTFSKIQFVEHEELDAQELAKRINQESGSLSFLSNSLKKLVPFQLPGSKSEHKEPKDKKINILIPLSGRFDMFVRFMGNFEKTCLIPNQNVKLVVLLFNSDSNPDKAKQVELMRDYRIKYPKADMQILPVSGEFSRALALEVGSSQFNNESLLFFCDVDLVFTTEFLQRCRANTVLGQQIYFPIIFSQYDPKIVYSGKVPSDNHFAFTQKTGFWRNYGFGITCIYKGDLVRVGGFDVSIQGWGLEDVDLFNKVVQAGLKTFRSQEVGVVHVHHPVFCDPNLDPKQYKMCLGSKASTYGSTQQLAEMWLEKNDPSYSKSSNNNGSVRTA
UniProt P33552, whole entry, looked up: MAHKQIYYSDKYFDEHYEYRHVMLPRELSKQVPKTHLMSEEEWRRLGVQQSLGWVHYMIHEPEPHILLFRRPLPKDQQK
UniProt O15111: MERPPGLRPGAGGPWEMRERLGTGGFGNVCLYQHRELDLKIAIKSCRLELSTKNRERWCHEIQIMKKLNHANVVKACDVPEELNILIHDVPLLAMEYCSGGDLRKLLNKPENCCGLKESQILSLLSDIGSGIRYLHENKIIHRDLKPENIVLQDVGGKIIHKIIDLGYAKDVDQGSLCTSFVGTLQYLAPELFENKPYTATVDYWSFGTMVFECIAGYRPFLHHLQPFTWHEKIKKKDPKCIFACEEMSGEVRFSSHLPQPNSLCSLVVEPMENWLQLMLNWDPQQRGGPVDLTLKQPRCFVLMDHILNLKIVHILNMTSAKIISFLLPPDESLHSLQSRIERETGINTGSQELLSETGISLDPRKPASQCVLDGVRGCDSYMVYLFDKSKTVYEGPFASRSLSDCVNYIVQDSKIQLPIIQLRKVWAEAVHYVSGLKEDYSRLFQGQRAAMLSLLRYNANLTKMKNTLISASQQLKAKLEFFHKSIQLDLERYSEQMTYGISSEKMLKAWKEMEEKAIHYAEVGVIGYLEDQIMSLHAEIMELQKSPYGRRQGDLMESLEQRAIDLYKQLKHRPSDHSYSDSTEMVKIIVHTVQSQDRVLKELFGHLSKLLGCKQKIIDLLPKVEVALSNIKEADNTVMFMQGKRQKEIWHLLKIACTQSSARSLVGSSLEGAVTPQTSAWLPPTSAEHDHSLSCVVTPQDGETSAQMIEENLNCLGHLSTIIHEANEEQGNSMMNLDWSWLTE
UniProt Q96F85: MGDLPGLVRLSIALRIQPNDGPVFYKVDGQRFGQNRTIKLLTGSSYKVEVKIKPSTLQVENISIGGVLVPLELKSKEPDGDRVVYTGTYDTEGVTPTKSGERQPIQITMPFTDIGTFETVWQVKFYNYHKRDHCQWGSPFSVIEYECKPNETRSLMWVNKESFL
UniProt Q9Y2V7: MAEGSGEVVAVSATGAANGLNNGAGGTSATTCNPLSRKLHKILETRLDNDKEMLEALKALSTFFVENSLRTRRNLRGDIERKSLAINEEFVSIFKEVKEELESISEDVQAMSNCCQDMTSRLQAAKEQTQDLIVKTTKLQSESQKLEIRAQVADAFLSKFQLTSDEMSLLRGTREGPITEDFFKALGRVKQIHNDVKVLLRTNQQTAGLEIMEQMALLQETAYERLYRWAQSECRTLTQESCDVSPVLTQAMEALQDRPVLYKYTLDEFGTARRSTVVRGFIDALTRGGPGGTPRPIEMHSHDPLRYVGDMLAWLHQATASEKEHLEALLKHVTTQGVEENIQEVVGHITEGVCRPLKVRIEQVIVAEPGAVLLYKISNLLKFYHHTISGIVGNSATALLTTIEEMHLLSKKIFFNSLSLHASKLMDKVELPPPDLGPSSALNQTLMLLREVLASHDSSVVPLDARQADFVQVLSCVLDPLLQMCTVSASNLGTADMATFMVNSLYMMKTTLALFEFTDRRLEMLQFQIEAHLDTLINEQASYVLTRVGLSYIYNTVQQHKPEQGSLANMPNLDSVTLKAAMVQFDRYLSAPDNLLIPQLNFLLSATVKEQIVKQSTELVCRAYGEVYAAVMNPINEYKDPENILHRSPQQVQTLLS
UniProt Q14677: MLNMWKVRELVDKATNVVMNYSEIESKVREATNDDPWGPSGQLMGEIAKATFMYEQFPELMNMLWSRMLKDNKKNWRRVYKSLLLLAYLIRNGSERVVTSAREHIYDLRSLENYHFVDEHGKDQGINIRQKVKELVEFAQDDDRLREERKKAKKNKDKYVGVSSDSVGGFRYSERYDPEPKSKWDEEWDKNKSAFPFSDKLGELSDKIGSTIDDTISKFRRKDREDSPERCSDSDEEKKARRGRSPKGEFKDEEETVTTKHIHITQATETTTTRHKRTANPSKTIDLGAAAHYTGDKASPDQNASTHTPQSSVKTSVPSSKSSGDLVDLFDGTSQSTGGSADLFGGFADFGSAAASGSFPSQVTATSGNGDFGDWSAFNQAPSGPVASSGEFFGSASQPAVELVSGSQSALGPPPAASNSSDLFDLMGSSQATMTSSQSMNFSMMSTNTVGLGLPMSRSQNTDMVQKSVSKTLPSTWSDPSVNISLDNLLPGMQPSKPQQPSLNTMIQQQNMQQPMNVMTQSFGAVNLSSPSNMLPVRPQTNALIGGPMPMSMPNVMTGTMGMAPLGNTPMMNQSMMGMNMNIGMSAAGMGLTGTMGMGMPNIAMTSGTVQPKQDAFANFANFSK
UniProt Q9Y3Y2: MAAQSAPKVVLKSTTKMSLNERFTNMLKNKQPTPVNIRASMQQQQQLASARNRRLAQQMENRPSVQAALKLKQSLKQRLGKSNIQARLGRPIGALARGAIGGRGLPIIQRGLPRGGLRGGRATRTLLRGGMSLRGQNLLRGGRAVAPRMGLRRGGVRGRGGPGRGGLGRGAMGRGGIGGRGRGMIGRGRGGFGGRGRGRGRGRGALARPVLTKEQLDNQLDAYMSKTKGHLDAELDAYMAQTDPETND
UniProt P62633: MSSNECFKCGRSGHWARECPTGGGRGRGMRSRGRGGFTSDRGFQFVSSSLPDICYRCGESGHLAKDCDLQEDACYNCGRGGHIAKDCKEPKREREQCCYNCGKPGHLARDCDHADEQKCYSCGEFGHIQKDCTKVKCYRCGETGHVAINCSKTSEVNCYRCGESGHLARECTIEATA

Assays:
Experiment in all cases: log2 fold change, soluble protein after heating vs DMSO (PISA); higher = thermal stabilisation; K562 cells, 10 uM, 30 min; active = over 0.2 and 3.5 SD of the protein, either way, in both replicates (recomputed)
[1] = compound: CC1=C(C=C(C=C1)NC(=O)C2=CC(=CC=C2)C(C)(C)C#N)NC3=CC4=C(C=C3)N=CN(C4=O)C
Method in brief: (§1)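 Values are thermal stability changes relative to control samples and are taken from duplicates. They are stated as log2 fold changes. Before quantification by TMTpro 16plex LC-MS/MS with equalised channel sums, K562 cells at 2×10^6 cells/mL were treated with 10 μM compound for 30 min, heated in aliquots for 3 min across 48°C-58°C, pooled, extracted in PBS with 0.5% NP-40 at 4°C, and centrifuged at 21,000xg for 90 min to give the soluble supernatant.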

[2] = compound: CC1=C(C=C(C=C1)NC(=O)C2=CC(=CC=C2)N(C)C)NC(=O)C3=CC=C(C=C3)O
Method in brief: as §1

[3] = compound: CC1=NC(=CC=C1)C2=C(N=C(N2)C(C)(C)C)C3=CC4=NC=CN=C4C=C3
Method in brief: as §1

Nexturastat A = compound: CCCCN(Cc1ccc(C(=O)NO)cc1)C(=O)Nc1ccccc1 [Nexturastat A]
Method in brief: as §1

vemurafenib = compound: CCCS(=O)(=O)Nc1ccc(F)c(C(=O)c2c[nH]c3ncc(-c4ccc(Cl)cc4)cc23)c1F [vemurafenib]
Method in brief: as §1

givinostat = compound: CCN(CC)Cc1ccc2cc(COC(=O)Nc3ccc(C(=O)NO)cc3)ccc2c1 [givinostat]
Method in brief: as §1

barasertib = compound: CCN(CCCOc1ccc2c(Nc3cc(CC(=O)Nc4cccc(F)c4)[nH]n3)ncnc2c1)CCOP(=O)(O)O [barasertib]
Method in brief: as §1

epoxomicin = compound: CC[C@H](C)[C@@H](C(=O)N[C@@H]([C@@H](C)O)C(=O)N[C@@H](CC(C)C)C(=O)[C@]1(CO1)C)NC(=O)[C@H]([C@@H](C)CC)N(C)C(=O)C [epoxomicin]
Method in brief: as §1

[4] = compound: CCn1c(C(=O)N(C2CC2)C2CC2)cc2c3c(ncn3C)c(Nc3cc(C)n(C)n3)nc21
Method in brief: as §1

[5] = compound: CCn1cc(-c2ccnc3[nH]c(-c4cccc(CN(C)C)c4)cc23)c(-c2ccc(NC(=O)N(C)C)cc2)n1
Method in brief: as §1

[6] = compound: CN(C)CC(=O)Nc1ccc2[nH]c(=O)c3ccccc3c2c1
Method in brief: as §1

rosiglitazone = compound: CN(CCOC1=CC=C(C=C1)C[C@H]2C(=O)NC(=O)S2)C3=CC=CC=N3 (racemic) [rosiglitazone]
Method in brief: as §1

[7] = compound: CN1C2=C(C3=C1C(=O)N(N=C3)CC4=CC(=CC=C4)N)SC(=C2)S(=O)C
Method in brief: as §1

[8] = compound: CN1CCC(CNc2ccc3ncc(-c4cccc(OC(F)(F)F)c4)n3n2)CC1
Method in brief: as §1

[9] = compound: CC1=CC=C(C=C1)SC2=C3C=C(SC3=CN=C2)C(=O)N
Method in brief: as §1

[10] = compound: CCCS(=O)(=O)Nc1ccc(F)c(C(=O)c2c[nH]c3ncc(Cl)cc23)c1F
Method in brief: as §1

[11] = compound: CCCc1cc(C)[nH]c(=O)c1CNC(=O)c1cc(-c2ccnc(N3CCN(C)CC3)c2)cc2c1cnn2C(C)C
Method in brief: as §1

[12] = compound: CC[C@@H]1C(=O)N(C)c2cnc(Nc3ccc(C(=O)NC4CCN(C)CC4)cc3OC)nc2N1C1CCCC1
Method in brief: as §1

volasertib = compound: CC[C@@H]1C(=O)N(C)c2cnc(Nc3ccc(C(=O)N[C@H]4CC[C@H](N5CCN(CC6CC6)CC5)CC4)cc3OC)nc2N1C(C)C [volasertib]
Method in brief: as §1

[13] = compound: CC[C@H](C)N1C=C(C2=C(C=C(C=C21)C3=CN=C(C=C3)N4CCNCC4)C(=O)NCC5=C(C=C(NC5=O)C)C)C
Method in brief: as §1

Measured: log2 fold change

CHST12 (UniProt Q9NRB3)
inactive: [1] -0.03 | [2] -0.073 | [3] 0.05 | Nexturastat A 0.347 | vemurafenib -0.006 | givinostat 0 | barasertib -0.015 | epoxomicin 0.074 | [4] -0.255 | [5] 0.009 | [6] -0.073 | rosiglitazone 0.062 | [7] -0.03 | [8] 0.023

CIAO2B (UniProt Q9Y3D0)
inactive: [1] -0.099 | [9] -0.044 | [3] -0.149 | [10] -0.054 | [11] 0.307 | givinostat 0.001 | barasertib 0.102 | [12] 0.041 | volasertib -0.398 | [13] 0.053 | [4] -0.026 | rosiglitazone 0.013 | [7] -0.122

CMPK2 (UniProt Q5EBM0)
inactive: [1] 0.062 | [9] -0.013 | [3] -0.014 | Nexturastat A 0.022 | vemurafenib -0.043 | [10] -0.022 | [11] 0.017 | givinostat 0.036 | barasertib 0.028 | [12] 0.139 | volasertib 0.117 | [13] -0.015 | epoxomicin 0.037 | [4] -0.039 | [5] -0.062 | [6] -0.021 | rosiglitazone 0.038 | [7] -0.015 | [8] -0.057

CMTM3 (UniProt Q96MX0)
inactive: [1] 0.052 | [9] 0.117 | [3] -0.027 | Nexturastat A -0.119 | vemurafenib 0 | [10] 0.001 | [11] -0.024 | givinostat -0.016 | barasertib 0.098 | [12] 0.066 | volasertib -0.088 | [13] -0.061 | epoxomicin 0.075 | [5] 0.057 | [6] 0.02 | [7] 0.048 | [8] -0.122
active: rosiglitazone -0.324

COL1A2 (UniProt P08123)
inactive: [1] -0.026 | [2] 0.222 | [3] 0 | Nexturastat A 0.091 | vemurafenib 0.059 | givinostat -0.073 | barasertib 0.162 | [12] -0.096 | [13] -0.122 | epoxomicin -0.525 | [4] 0.036 | [5] -0.068 | [6] 0.033 | rosiglitazone -0.091 | [7] 0.395 | [8] 0.031

CLIC6 (UniProt Q96NY7)
inactive: [1] 0.045 | [2] 0.028 | [3] 0.029 | Nexturastat A -0.227 | vemurafenib -0.11 | [11] -0.111 | barasertib 0.027 | [12] -0.012 | [13] -0.053 | epoxomicin -0.041 | [6] 0.073 | rosiglitazone 0.034 | [7] -0.229

CKAP4 (UniProt Q07065)
inactive: [1] 0.025 | [2] 0.056 | [9] -0.013 | vemurafenib -0.024 | [10] -0.009 | [11] -0.089 | [12] -0.144 | volasertib -0.05 | [13] 0.057 | [6] 0.02 | [7] 0.07

CLDN12 (UniProt P56749)
inactive: [1] -0.05 | Nexturastat A 0.313 | [11] 0.048 | barasertib 0.092 | epoxomicin -0.138 | rosiglitazone -0.035

COG5 isoform 2 (UniProt Q9UP83)
inactive: [2] -0.036 | [3] -0.047 | vemurafenib -0.072 | givinostat -0.049 | [4] 0.159 | [6] -0.007

COG7 (UniProt P83436)
inactive: [2] 0.044 | [9] -0.061 | Nexturastat A 0.104 | vemurafenib 0.024 | [10] 0.128 | [11] 0.253 | givinostat 0.494 | volasertib -0.526 | epoxomicin -0.248 | [4] 0.195 | [6] 0.031 | [7] 0.124

CLASRP (UniProt Q8N2M8)
inactive: [1] -0.115 | [3] 0.051 | Nexturastat A 0.019 | givinostat 0.013 | barasertib 0.004 | [12] -0.33 | [13] 0.07 | epoxomicin 0.016 | [4] -0.114 | [5] -0.109 | rosiglitazone 0.035 | [8] 0.058

COA5 (UniProt Q86WW8)
inactive: [3] -0.07 | Nexturastat A -0.063 | vemurafenib 0.036 | givinostat -0.002 | epoxomicin 0.042 | [4] 0.009 | [6] 0.015 | [7] 0.004

CHSY1 (UniProt Q86X52)
inactive: Nexturastat A 0.018 | epoxomicin -0.475

CKS2 (UniProt P33552)
inactive: [9] -0.031 | [10] 0.039 | [11] -0.077 | barasertib 0.045 | [12] 0.01 | volasertib -0.044 | [13] 0.029 | [5] -0.23 | [7] 0.023
active: [8] 0.594

CLCN5 isoform 2 (UniProt P51795)
inactive: [2] 0.052 | [3] -0.016 | vemurafenib 0.029 | givinostat 0.022 | [12] -0.299 | [13] 0.151 | [5] 0.172 | [6] 0.046 | [7] 0.098 | [8] -0.267

CMC4 (UniProt P56277)
inactive: [2] -0.264 | [9] -0.011 | [3] -0.019 | [10] -0.02 | givinostat -0.018 | volasertib 0.156 | [4] -0.163 | [5] -0.041 | [7] -0.282 | [8] 0.154

CLYBL (UniProt Q8N0X4)
inactive: [9] 0.469 | [10] 0.411 | givinostat -0.054 | volasertib -0.161 | [4] -0.007 | [5] -0.058 | [8] 0.054

CHUK (UniProt O15111)
inactive: [2] 0.032 | Nexturastat A 0.435 | vemurafenib -0.006 | [11] 0.072 | epoxomicin -0.267 | [5] -0.316 | [6] 0.117 | [7] 0.327 | [8] 0.021

CLEC11A (UniProt Q9Y240)
inactive: [9] -0.128 | [10] -0.004 | givinostat -0.03 | volasertib -0.093 | [4] -0.058 | [5] -0.02 | [7] 0.064 | [8] 0.193

COG8 (UniProt Q96MW5)
inactive: [3] -0.166 | Nexturastat A 0.499 | [11] 0.297 | [12] 0.066 | epoxomicin 0.039

CNEP1R1 isoform 2 (UniProt Q8N9A8)
inactive: vemurafenib -0.045 | givinostat -0.064 | [4] 0.037 | [6] 0.153

CHST14 (UniProt Q8NCH0)
inactive: [2] 0.006 | [9] 0.014 | [3] -0.139 | Nexturastat A -0.101 | vemurafenib 0.014 | [10] -0.019 | [11] -0.061 | givinostat 0.145 | barasertib -0.005 | volasertib -0.274 | [13] -0.026 | epoxomicin -0.042 | [4] -0.033 | [5] 0.086 | [6] -0.023 | rosiglitazone -0.07 | [7] 0.005 | [8] -0.02

CNRIP1 (UniProt Q96F85)
inactive: [2] 0.073 | [9] 0.023 | Nexturastat A -0.206 | [10] -0.075 | [11] -0.087 | givinostat 0.106 | volasertib 0.306 | [13] -0.269 | epoxomicin -0.043

CLPTM1L (UniProt G5E9Z2)
inactive: [1] 0.122 | Nexturastat A -0.466 | vemurafenib 0.055 | [11] -0.035 | barasertib -0.076 | [13] -0.055 | epoxomicin 0.247 | [5] 0.116 | [6] 0.117 | [8] 0.052

CLSTN3 isoform 2 (UniProt Q9BQT9)
inactive: [9] -0.069 | Nexturastat A 0.211 | vemurafenib -0.102 | [10] -0.081 | volasertib -0.114 | epoxomicin -0.06 | [5] -0.252 | [6] -0.103 | [8] 0.506

COG6 (UniProt Q9Y2V7)
inactive: [2] 0.058 | [9] -0.104 | vemurafenib -0.109 | [10] -0.025 | [11] -0.187 | givinostat 0.198 | volasertib -0.053 | [4] -0.104 | [6] 0.087 | [7] 0.208

Pulled one by one from the entries so far, 2 records:
CMPK2 (UniProt Q5EBM0)
inactive: [1] 0.062 | [9] -0.013 | [3] -0.014 | Nexturastat A 0.022 | vemurafenib -0.043 | [10] -0.022 | [11] 0.017 | givinostat 0.036 | barasertib 0.028 | [12] 0.139 | volasertib 0.117 | [13] -0.015 | epoxomicin 0.037 | [4] -0.039 | [5] -0.062 | [6] -0.021 | rosiglitazone 0.038 | [7] -0.015 | [8] -0.057

COG7 (UniProt P83436)
inactive: [2] 0.044 | [9] -0.061 | Nexturastat A 0.104 | vemurafenib 0.024 | [10] 0.128 | [11] 0.253 | givinostat 0.494 | volasertib -0.526 | epoxomicin -0.248 | [4] 0.195 | [6] 0.031 | [7] 0.124

More records:

COG3 (UniProt Q96JB2)
inactive: [2] -0.099 | [3] -0.263 | Nexturastat A 0.341 | vemurafenib 0.071 | [11] 0.231 | givinostat 0.316 | barasertib -0.082 | [12] 0.047 | epoxomicin -0.074 | [4] -0.407 | [6] -0.014 | rosiglitazone -0.083 | [7] 0.172

CLINT1 (UniProt Q14677)
inactive: [3] -0.007 | Nexturastat A 0.259 | vemurafenib 0.051 | [11] -0.017 | barasertib 0.017 | [12] -0.022 | [13] 0.021 | epoxomicin -0.035 | [6] -0.075 | [7] -0.218

CHTOP isoform 3 (UniProt Q9Y3Y2)
inactive: [1] 0.114 | [3] -0.193 | Nexturastat A 0.389 | vemurafenib 0.054 | [11] 0.154 | givinostat 0.078 | epoxomicin -0.197 | [4] 0 | [6] -0.037 | [7] 0.158

CNBP isoform 4 (UniProt P62633)
inactive: [11] -0.018 | barasertib -0.019 | [12] 0.102 | [13] -0.024 | rosiglitazone -0.066
